Literature values in patent US20200061018A1, “METHODS AND COMPOSITIONS FOR TREATING PARKINSON'S DISEASE” (Cove Bio LLC, priority 2016, published 2020).

Settings: crystalline; cited from earlier work

C[C@@H]1[C@H](O)[C@@H](C)/C=C/C=C/C=C/C=C/C=C/C=C/C=C/[C@H](O[C@@H]2O[C@H](C)[C@@H](O)[C@H](N)[C@@H]2O)C[C@@H]2O[C@](O)(C[C@@H](O)C[C@@H](O)[C@H](O)CC[C@@H](O)C[C@@H](O)CC(=O)O[C@H]1C)C[C@H](O)[C@H]2C(=O)O [amphotericin B]
solubility in water: insoluble
